± gives the standard deviation of the averaged measurements. Most values lie at the floor of the assay. Slopes are relative: functional sequences can read slightly below zero.
System: Saccharomyces cerevisiae PS128 hsf1 delta, HSF1(1-493) fusion
Assay: growth estimate (transactivation domain function in HSF1 fusion, heat-shock survival) (a.u. (slope of normalised read count over time)); higher = stronger growth at 37°C, i.e. more transactivation activity
Conditions: library: random library

Substance	growth estimate
LTNQAKRFVPLDVGITGIPL	< -0.25
DCCEAGRRKSKLT	< -0.25
WSRHTVVVENTPGVDAMCSQ	< -0.25
ALVLALSLCDREQGRTGPWP	< -0.25
LGNM	< -0.25
YAGRLAPAYPIINTVPRGQA	-0.145
GSSTPTKSKNPRACLKGGFE	< -0.25
HSWGIYVWVLHCTESR	< -0.25
HTSRCHRRSLFPKVQKYEAN	< -0.25
TTKWTIDCKSHQ	-0.114
LGMGYASASSSRD	< -0.25
PGKLLATGNRTQALIDPGRA	< -0.25
DISL	< -0.25
VPPVQRGRLTEFMLPWGIWW	< -0.25
DRCIRVL	< -0.25
NVTRASPGTCEVGGPGRIIQ	-0.241
ARSVQHV	< -0.25
FSQSLFYAVYWRVCPATRDQ	< -0.25
ICPLWVCPRKLFEHPDPGVR	< -0.25
IQLSTEASDRTGS	< -0.25
GHYIAGCFSGLAAAVIRG	< -0.25
PTWHHLVAPGFGYQAITLGK	< -0.25
SIGVKLESVRIAYRAQLSPA	< -0.25
LGLRGATTRVPSVFVGAVSK	< -0.25
ESTEASECWVCGTFG	< -0.25

Substance	growth estimate
GKALESILRIERLRRSLFST	< -0.25
MSNMSSSLFSQ	< -0.25
CDQN	< -0.25
SIASAYMSSHGRYSRGRSAE	< -0.25
MLAVKALAW	< -0.25
HSRSARRLARPGTRNCRPCP	< -0.25
AVEYRGRRRLNPPEAVVRRR	< -0.25
RTYSMH	< -0.25
ANTITKSQNL	< -0.25
SISTSVRDGAIATPRSVVSM	< -0.25
RTKREGCV	< -0.25
SGRSASSQEALRLDASRGRE	< -0.25
LLARSR	< -0.25
MRG	< -0.25
RGSRLCAGIIAVVFFSQKGV	< -0.25
GELEFWRLSDAISRHVHSGS	< -0.25
WKRVTQRHQARNSTIISPRT	< -0.25
LPYKCNPTPELIVAETAVFH	< -0.25
FEESMSCVTFKTGLFSGSRA	< -0.25
SLVASRNCSCHNPQPNPCRD	< -0.25
NMTN	< -0.25
HTASQVLEPPCVTSKRSVAW	< -0.25
CYWCGHLRVVGTVSNL	-0.231
NSGLPGTNLVNHKVG	< -0.25
KRPLFQLDFELRLSPIVRHG	< -0.25

Substance	growth estimate
KHVSASTASVRK	< -0.25
LGAMDGVRPSACIEKCFPTR	< -0.25
ILIGSENFTSCEVQSALVR	< -0.25
DRCASRFETDSTDWSVSRGM	< -0.25
ENDVSYFVATSYRLSMMA	-0.199
VNVLRPDRRVYPAGLSVDC	< -0.25
AWAD	< -0.25
SRP	-0.204 ± 0.08
YLLDAGSEWSGAVDRPPEMY	< -0.25
RGRSWSCS	< -0.25
RALLAPPWSGLVCVCRCLWL	< -0.25
QFGCPIFVQTG	< -0.25
FSI	< -0.25
HQTEDAAEVFADFLFLRNGC	< -0.25
NIVRSGSRLRARFISMNRYW	< -0.25
VHRRKTSGRREN	< -0.25
REPKTPTP	< -0.25
WVWLSRCDSA	-0.24
CRSKWGAIG	< -0.25
SSLGLGPDNCRVTLAKGYIK	< -0.25
VQVH	< -0.25
NHVGHPFRKRPPADPSGAMP	< -0.25
GLPNGLAMMVTRGTRPGN	< -0.25
VCWFRSV	< -0.25
GWEWGFGD	0.0785

Substance	growth estimate
HAPCGQLSFRRQDAVPLKFA	-0.117
GCG	< -0.25
GSTKVVISTKKSQPNSSTL	< -0.25
FGVTRDMW	< -0.25
YRYVLVKDQVKAGLLAIASG	-0.176
NERQRVSRNPWSKMWPRNGQ	< -0.25
VRC	< -0.25
SVGNGLTCTR	< -0.25
IQFDPWHGYGIRRDETVSPV	< -0.25
CFEFIRSSAECPRIRSLYPA	< -0.25
HCKRTYLDVLGSSRGRCSRQ	< -0.25
EEENDIPLSPCVTDTSRSLG	< -0.25
NNLPEATTDLIRPRAVSLGS	-0.246
HIGVRWVPM	< -0.25
SSKFQLFSTGLYFASARSGN	< -0.25
LKYSYEGICPPGYGLSQIGR	< -0.25
RVGGQPA	< -0.25
VPTTF	< -0.25
EMVRLTLVQPDRRLSLRFRL	< -0.25
CVGMQIASTEIFVCN	< -0.25
MAHECRSVRIDSTGP	< -0.25
RDGLAGAEPPLGYLGGATKQ	< -0.25
SNVRDLIIRAHTVNPEEAPK	< -0.25
RCFRHRINHKLFS	< -0.25
IVLGQ	< -0.25

Substance	growth estimate
WTDFNISLCRLQKRYPRVLT	< -0.25
NYSQNEEGGGSTAGARQAMG	< -0.25
IQYLS	< -0.25
WFLRDRLYCFNAIVTRKSAR	< -0.25
LTHNDVYYLWRYQ	< -0.25
TQLLYYDLWIFVL	< -0.25
LFGWMRNHD	< -0.25
TSCCGSNTDGKLVSRTRKRH	< -0.25
GVDRVPGTIPVAVRLDGAAN	< -0.25
PFKVRTSVAVEQLRHELLSA	< -0.25
TQTLFERRASYHGIY	< -0.25
PLSVQRL	< -0.25
VNIHWS	< -0.25
IRCR	< -0.25
TKDRCA	< -0.25
GDHRQSTQRVGSSRSMRGK	< -0.25
GKTPLCCTGLVVSSFVSLVG	-0.246
GGTCGRHGRARFRASLIEGQ	< -0.25
RRKGKKTLPLVMFCSRTGPG	< -0.25
CLRDGPYCARAYNYVFPVLM	< -0.25
ALSDSAESECSIASIQHVPG	< -0.25
SYSGGYART	< -0.25
HHIKLACM	< -0.25
EVFSQGGFRGRQIAKRLSRQ	< -0.25
IGTESFANGG	-0.246

Given bar-delimited: part of the list above
Substance | growth estimate
TSCCGSNTDGKLVSRTRKRH | < -0.25
GVDRVPGTIPVAVRLDGAAN | < -0.25
PFKVRTSVAVEQLRHELLSA | < -0.25

Next entries

Substance	growth estimate
SWDEESRTEISTQIYLVNVH	< -0.25
LTVYSKVQLLFNLYILSKRP	< -0.25
RVADSYQIMNRR	< -0.25
LFLAP	< -0.25
VWLRFPAN	< -0.25
IFSGHPLVGST	< -0.25
HGRWQEQRLFFGLLSYCRQD	< -0.25
FQS	< -0.25
FYTSLGVKAGTLRTWDAPMQ	< -0.25
RLML	< -0.25
QKDGYIWESLNFPARLLVDP	< -0.25
TLILPILCSRE	< -0.25
RAHVSVVVEERY	< -0.25
GTGRLIGTVV	< -0.25
FVLVNSRRG	< -0.25
LHFAQGFQVDCVEGDLNVRA	< -0.25
VGRVW	< -0.25
RLGGVTVDQGPRTRRLTGDH	< -0.25
IITVSVSMTLFTTLEAIIWW	< -0.25
LSASDHVAFITTIRSLTAKW	< -0.25
QGDFMRLLMREAVKTGLASL	< -0.25
PVRNI	< -0.25
MALRADAVLLP	< -0.25
LNT	< -0.25
PRTPYCIVGGQLYQWGIQSQ	< -0.25

Substance	growth estimate
ITSGHAFGK	< -0.25
CVPVQTGPHRTPVIRC	< -0.25
SFRS	< -0.25
KIAIKDGKDIALSNGCYEGL	< -0.25
CGQRRI	< -0.25
DRKH	< -0.25
LAPWCKGC	< -0.25
VNAIMIARLVIFCLRKI	< -0.25
LKLPSHSVVRKLLMLADSEG	< -0.25
TVFASGSSMWLLTCDSRALS	< -0.25
PGSRGGPYELQHRLWQSSRF	< -0.25
RPGKQNRGLELTYGLVS	< -0.25
RTRSEKACLGYNMFPVPLIQ	-0.243
LGHGVEVSVSVGGIWTSSIY	< -0.25
HCSALQTHYYACVKMTVRLR	< -0.25
RARSFGLIRPMCIFSSVKDL	< -0.25
FPRDRVVTLGL	< -0.25
SVDARFLSKGVSGASHLW	< -0.25
EVPIGYEILSIGTPRSARQG	< -0.25
QLA	< -0.25
GNANLGPFQFIKLFAAKRAN	< -0.25
SGVRAQSLTRLYGLGGVTRR	< -0.25
GYLRRIWDRPAAKHRRLLTS	< -0.25
VAGGLLLS	< -0.25
CVAPSRNMVGPHRLCRACHL	< -0.25

Pulled one by one from the entries so far (7):
Substance	growth estimate
TVFASGSSMWLLTCDSRALS	< -0.25
CVPVQTGPHRTPVIRC	< -0.25
RARSFGLIRPMCIFSSVKDL	< -0.25
QLA	< -0.25
SFRS	< -0.25
VNAIMIARLVIFCLRKI	< -0.25
GYLRRIWDRPAAKHRRLLTS	< -0.25

Following part

Substance	growth estimate
RLLNGSKLLGCHRVGLENPP	< -0.25
RMRFCNRYTGFQAGGPPILP	< -0.25
HCDRIGNREKEYRPPSVRML	< -0.25
GDCRSECGSLIVDEAVKRAL	< -0.25
RLGEIFGGNRMLGYNTPSWN	< -0.25
LGWRVEVGDIT	< -0.25
GQPFGVRALSRADAVR	< -0.25
LPELSALTKTYNNTGPSISC	< -0.25
FRYMLKRPKNSTPIIQIATV	< -0.25
EFVPYGVNPGRT	< -0.25
AVDQPIRVICGRGVSPAR	< -0.25
VLRLRLNDPN	-0.0184
FVQSCPSETRVLTIL	< -0.25
RKLGQASTDTPTVHRRKAFR	< -0.25
PMRVRLPSLF	< -0.25
SQLSDDRQFLRSAY	< -0.25
RSISRLHSDTVYVNREIIGG	< -0.25
SALGGRYPTQIGQCDRTAAR	< -0.25
TAVLLSSAKPRIFPFSSSFA	< -0.25
YHISKSEPRGIQR	< -0.25
QFHTCRQVRGRAGALEAGQC	< -0.25
RANVSYSY	< -0.25

Source: the supplement of paper PMC5949888
